This experiment has as its target Protein phosphatase 2A (mouse (endogenous in hippocampus)) (UniProt P63330). Put plainly: co-IP; mouse hippocampus lysed in RIPA with protease and phosphatase inhibitors and 1 mM sodium orthovanadate; 150 ug protein precipitated with PDI, PP1, PP2A or PICK1 antibody, protein G sepharose, 4 °C overnight; Western blot; animals infused with control siRNA or PDI siRNA, given saline or kainic acid (25 mg/kg, i.p.). In general terms: In western blotting, separated proteins are transferred to a membrane and probed.

Chains of the proteins cited; added tags and fusions are not shown. Lines headed by an entry give the natural chain unless they say otherwise; changes in a name come on top. Residues count along the entry.
UniProt P63330: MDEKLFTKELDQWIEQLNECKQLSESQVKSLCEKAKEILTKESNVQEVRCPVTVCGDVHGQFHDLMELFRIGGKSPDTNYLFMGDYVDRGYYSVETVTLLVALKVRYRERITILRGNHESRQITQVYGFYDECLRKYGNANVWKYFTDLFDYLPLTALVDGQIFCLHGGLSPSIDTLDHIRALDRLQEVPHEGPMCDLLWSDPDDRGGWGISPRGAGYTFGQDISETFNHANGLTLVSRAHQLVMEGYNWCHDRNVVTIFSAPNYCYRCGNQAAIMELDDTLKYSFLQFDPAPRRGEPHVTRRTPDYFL
UniProt P09103, residues 20-509: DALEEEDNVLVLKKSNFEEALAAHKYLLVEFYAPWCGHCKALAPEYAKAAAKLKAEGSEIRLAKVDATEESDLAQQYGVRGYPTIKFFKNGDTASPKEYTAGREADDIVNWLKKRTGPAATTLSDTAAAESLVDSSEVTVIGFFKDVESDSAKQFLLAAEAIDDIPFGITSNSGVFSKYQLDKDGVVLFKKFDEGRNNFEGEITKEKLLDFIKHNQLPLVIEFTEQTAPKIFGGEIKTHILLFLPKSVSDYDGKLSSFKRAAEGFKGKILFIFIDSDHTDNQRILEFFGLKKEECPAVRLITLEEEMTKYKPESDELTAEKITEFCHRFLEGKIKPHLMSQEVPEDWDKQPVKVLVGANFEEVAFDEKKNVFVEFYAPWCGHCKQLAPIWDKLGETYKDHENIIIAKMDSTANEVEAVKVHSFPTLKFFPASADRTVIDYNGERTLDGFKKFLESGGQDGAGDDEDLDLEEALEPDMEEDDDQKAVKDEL

These are yes or no findings as the source states them, for the method shown. Binding seen in cells or lysates may run through a third protein. Binding can be weak; no strength is given.

Take “Protein disulfide isomerase (from UniProt P09103 20-509) (enzyme)”: the binding entry is recorded as “binds”.
